In ChEMBL document CHEMBL4316593 (Eur J Med Chem, 2019):
Further values from the same series stand in other lists.

Assays:
Assay type in all cases: cell-based
Details in all cases: U-87MG ATCC
[1] = Inhibition of RTK/PI3K/AKT/mTOR signaling in human U87 cells assessed as down regulation of C12orf4 gene expression at cytotoxic IC50 measured after 48 hrs relative to control
[2] = Inhibition of RTK/PI3K/AKT/mTOR signaling in human U87 cells assessed as down regulation of EAF1 gene expression at cytotoxic IC50 measured after 48 hrs relative to control
[3] = Inhibition of RTK/PI3K/AKT/mTOR signaling in human U87 cells assessed as down regulation of PRDM2 gene expression at cytotoxic IC50 measured after 48 hrs relative to control
[4] = Inhibition of RTK/PI3K/AKT/mTOR signaling in human U87 cells assessed as down regulation of ANKRD1 gene expression at cytotoxic IC50 measured after 48 hrs relative to control
[5] = Inhibition of RTK/PI3K/AKT/mTOR signaling in human U87 cells assessed as up regulation of TMEM94 gene expression at cytotoxic IC50 measured after 48 hrs relative to control
[6] = Inhibition of RTK/PI3K/AKT/mTOR signaling in human U87 cells assessed as up regulation of FtsJ RNA methyltransferase homolog 1 (E. coli) gene expression at cytotoxic IC50 measured after 48 hrs relative to control
[7] = Inhibition of RTK/PI3K/AKT/mTOR signaling in human U87 cells assessed as up regulation of protocadherin 1 gene expression at cytotoxic IC50 measured after 48 hrs relative to control
[8] = Inhibition of RTK/PI3K/AKT/mTOR signaling in human U87 cells assessed as up regulation of CD320 molecule gene expression at cytotoxic IC50 measured after 48 hrs relative to control
[9] = Inhibition of RTK/PI3K/AKT/mTOR signaling in human U87 cells assessed as up regulation of ras-related C3 botulinum toxin substrate 3 (rho family, small GTP binding protein Rac3) gene expression at cytotoxic IC50 measured after 48 hrs relative to control
[10] = Inhibition of RTK/PI3K/AKT/mTOR signaling in human U87 cells assessed as up regulation of NACA gene expression at cytotoxic IC50 measured after 48 hrs relative to control
[11] = Inhibition of RTK/PI3K/AKT/mTOR signaling in human U87 cells assessed as down regulation of GADD45B gene expression at cytotoxic IC50 measured after 48 hrs relative to control
[12] = Inhibition of RTK/PI3K/AKT/mTOR signaling in human U87 cells assessed as up regulation of zinc and ring finger 1 gene expression at cytotoxic IC50 measured after 48 hrs relative to control
[13] = Inhibition of RTK/PI3K/AKT/mTOR signaling in human U87 cells assessed as up regulation of lysophosphatidylcholine acyltransferase 4 gene expression at cytotoxic IC50 measured after 48 hrs relative to control
[14] = Inhibition of RTK/PI3K/AKT/mTOR signaling in human U87 cells assessed as up regulation of discs large MAGUK scaffold protein 1 gene expression at cytotoxic IC50 measured after 48 hrs relative to control
[15] = Inhibition of RTK/PI3K/AKT/mTOR signaling in human U87 cells assessed as down regulation of ZNF92 gene expression at cytotoxic IC50 measured after 48 hrs relative to control
[16] = Inhibition of RTK/PI3K/AKT/mTOR signaling in human U87 cells assessed as down regulation of MAFB gene expression at cytotoxic IC50 measured after 48 hrs relative to control
[17] = Inhibition of RTK/PI3K/AKT/mTOR signaling in human U87 cells assessed as down regulation of FAM91A1 gene expression at cytotoxic IC50 measured after 48 hrs relative to control
[18] = Inhibition of RTK/PI3K/AKT/mTOR signaling in human U87 cells assessed as down regulation of BCL10 gene expression at cytotoxic IC50 measured after 48 hrs relative to control
[19] = Inhibition of RTK/PI3K/AKT/mTOR signaling in human U87 cells assessed as down regulation of PHC3 gene expression at cytotoxic IC50 measured after 48 hrs relative to control
[20] = Inhibition of RTK/PI3K/AKT/mTOR signaling in human U87 cells assessed as down regulation of TTC14 gene expression at cytotoxic IC50 measured after 48 hrs relative to control
[21] = Inhibition of RTK/PI3K/AKT/mTOR signaling in human U87 cells assessed as down regulation of NFKBIB gene expression at cytotoxic IC50 measured after 48 hrs relative to control
[22] = Inhibition of RTK/PI3K/AKT/mTOR signaling in human U87 cells assessed as down regulation of PTGS2 gene expression at cytotoxic IC50 measured after 48 hrs relative to control
[23] = Inhibition of RTK/PI3K/AKT/mTOR signaling in human U87 cells assessed as down regulation of AP2B1 gene expression at cytotoxic IC50 measured after 48 hrs relative to control
[24] = Inhibition of RTK/PI3K/AKT/mTOR signaling in human U87 cells assessed as up regulation of TSC22 domain family member 3 gene expression at cytotoxic IC50 measured after 48 hrs relative to control
[25] = Inhibition of RTK/PI3K/AKT/mTOR signaling in human U87 cells assessed as down regulation of MARK2 gene expression at cytotoxic IC50 measured after 48 hrs relative to control
[26] = Inhibition of RTK/PI3K/AKT/mTOR signaling in human U87 cells assessed as down regulation of FOSL1 gene expression at cytotoxic IC50 measured after 48 hrs relative to control
[27] = Inhibition of RTK/PI3K/AKT/mTOR signaling in human U87 cells assessed as up regulation of phosphoribosylglycinamide formyltransferase, phosphoribosylglycinamide synthetase, phosphoribosylaminoimidazole synthetase gene expression at cytotoxic IC50 measured after 48 hrs relative to control
[28] = Inhibition of RTK/PI3K/AKT/mTOR signaling in human U87 cells assessed as up regulation of WNT16 gene expression at cytotoxic IC50 measured after 48 hrs relative to control
[29] = Inhibition of RTK/PI3K/AKT/mTOR signaling in human U87 cells assessed as down regulation of DHRS2 gene expression at cytotoxic IC50 measured after 48 hrs relative to control
[30] = Inhibition of RTK/PI3K/AKT/mTOR signaling in human U87 cells assessed as up regulation of TBC1D20 gene expression at cytotoxic IC50 measured after 48 hrs relative to control
[31] = Inhibition of RTK/PI3K/AKT/mTOR signaling in human U87 cells assessed as down regulation of ORC1 gene expression at cytotoxic IC50 measured after 48 hrs relative to control
[32] = Inhibition of RTK/PI3K/AKT/mTOR signaling in human U87 cells assessed as down regulation of TAF9B gene expression at cytotoxic IC50 measured after 48 hrs relative to control

Structure (SMILES): CC(=O)C(=NNc1ccccc1C#N)C(C)=O
- log2FC [1]: -0.982
- log2FC [2]: -0.976
- log2FC [3]: -1.4
- log2FC [4]: -4.58
- log2FC [5]: 0.605
- log2FC [6]: 0.663
- log2FC [7]: 1.39
- log2FC [8]: 1.1
- log2FC [9]: 0.765
- log2FC [10]: 0.353
- log2FC [11]: -2.59
- log2FC [12]: 0.857
- log2FC [13]: 0.946
- log2FC [14]: 1.3
- log2FC [15]: -2.41
- log2FC [16]: -3.34
- log2FC [17]: -0.702
- log2FC [18]: -0.86
- log2FC [19]: -0.709
- log2FC [20]: -1.13
- log2FC [21]: -0.811
- log2FC [22]: -1.91
- log2FC [23]: -0.573
- log2FC [24]: 1.57
- log2FC [25]: -0.746
- log2FC [26]: -1.27
- log2FC [27]: 0.736
- log2FC [28]: 3.37
- log2FC [29]: -2.17
- log2FC [30]: 0.541
- log2FC [31]: -0.923
- log2FC [32]: -1.41
